Reference: PubChem BioAssay (Tox21)
Values joined by “and” are separate entries in the source; they are usually repeats but may differ in a detail not shown here. Identical values can stand only once. Inconclusive means that the source gave no clear call. Such entries were picked first, then a sample of the others. For part of these data: Where the call is inconclusive, the potency comes from a doubtful curve fit. The source holds several records for some structures; these can differ, active in one and inactive in another. Active and inactive are the calls of the source. Unless noted, the call rests on the fitted dose curve.

Amino acid sequences for entries named in this document (tags omitted). A change or cut given only in a name is not applied to a line headed by its entry.
UniProt P28223, whole entry, looked up: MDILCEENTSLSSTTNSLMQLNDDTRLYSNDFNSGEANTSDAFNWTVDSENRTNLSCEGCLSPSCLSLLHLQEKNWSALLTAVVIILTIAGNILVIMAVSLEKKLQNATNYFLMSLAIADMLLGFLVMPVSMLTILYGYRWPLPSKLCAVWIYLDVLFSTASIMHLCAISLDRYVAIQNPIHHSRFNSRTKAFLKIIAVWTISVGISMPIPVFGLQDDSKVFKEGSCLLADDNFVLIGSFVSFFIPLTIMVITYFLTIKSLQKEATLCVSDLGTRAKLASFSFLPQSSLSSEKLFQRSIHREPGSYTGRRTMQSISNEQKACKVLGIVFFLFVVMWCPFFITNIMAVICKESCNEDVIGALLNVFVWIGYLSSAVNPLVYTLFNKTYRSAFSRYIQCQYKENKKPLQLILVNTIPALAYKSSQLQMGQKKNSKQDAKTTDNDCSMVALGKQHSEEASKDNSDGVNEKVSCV
UniProt P11229: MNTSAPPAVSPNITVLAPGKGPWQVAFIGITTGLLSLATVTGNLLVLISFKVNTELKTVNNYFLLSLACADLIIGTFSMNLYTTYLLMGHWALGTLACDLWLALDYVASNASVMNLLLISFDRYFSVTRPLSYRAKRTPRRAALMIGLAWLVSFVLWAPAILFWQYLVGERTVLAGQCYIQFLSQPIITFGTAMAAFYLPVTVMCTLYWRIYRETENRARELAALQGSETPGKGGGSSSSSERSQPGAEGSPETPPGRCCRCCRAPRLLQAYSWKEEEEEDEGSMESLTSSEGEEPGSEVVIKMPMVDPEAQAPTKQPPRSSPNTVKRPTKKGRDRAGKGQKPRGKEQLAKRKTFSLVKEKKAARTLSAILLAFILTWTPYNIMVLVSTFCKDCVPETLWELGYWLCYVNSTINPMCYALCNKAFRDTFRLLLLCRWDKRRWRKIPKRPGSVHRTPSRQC
UniProt P14416, whole entry, looked up: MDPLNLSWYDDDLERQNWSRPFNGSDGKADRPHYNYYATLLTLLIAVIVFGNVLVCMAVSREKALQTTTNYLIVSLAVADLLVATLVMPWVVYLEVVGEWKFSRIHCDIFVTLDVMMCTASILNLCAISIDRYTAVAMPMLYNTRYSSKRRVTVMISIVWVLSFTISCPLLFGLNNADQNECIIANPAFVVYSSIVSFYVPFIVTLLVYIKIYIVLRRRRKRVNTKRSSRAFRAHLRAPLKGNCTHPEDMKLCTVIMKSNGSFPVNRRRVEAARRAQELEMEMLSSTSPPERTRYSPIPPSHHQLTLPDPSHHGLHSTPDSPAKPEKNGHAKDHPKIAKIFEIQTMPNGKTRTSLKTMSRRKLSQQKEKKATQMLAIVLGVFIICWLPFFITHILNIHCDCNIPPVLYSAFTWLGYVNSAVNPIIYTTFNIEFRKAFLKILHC

Key:
[1] = p53 small molecule agonists, cell-based qHTS assay with human liver microsomes: qHTS cell viability counter screen (AID 1963579); further: nearly all actives have a fitted effect of over 45% in size
Outline: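 Seed p53RE-bla cells at 4,000 per well; incubate 5 h at 37 C; add compound, human liver microsomes and NADPH; incubate 16 h at 37 C; add CellTiter-Glo; after 30 min at room temperature, read luminescence.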

[2] = p53 small molecule agonists, cell-based qHTS assay (AID 1963582; active means well fitted activation curve with a large enough effect in the signal ratio in the repeat runs, not every such curve was filed as active; inconclusive means weak or mixed curves; the % refers to the signal ratio; on activation: on the % scale 0 is the no-effect control and ±100 the full control effect); conditions: HCT-116 p53RE-bla reporter, beta-lactamase FRET ratio, 16 h; activation: at 66 µM (top of the series) unless noted
Outline: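 Fluorescence intensity read-out of a beta-lactamase reporter under a p53 response element. Cells were exposed to DMSO-dissolved compounds for 16 h at 37 C, then developed with FRET substrate for 2 h at RT.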

[3] = cAMP Responsive Elements (CRE) small molecule agonists, cell-based qHTS assay (AID 1963590); conditions: CRE-bla HEK293T, beta-lactamase FRET ratio, 3 h; activation: at 92.4 µM (top of the series) unless noted
Outline: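 Beta-lactamase reporter readout: LiveBLAzer B/G FRET substrate, 2 h at room temperature, added after 3 h compound treatment of CRE-bla HEK 293T cells at 37 C/5% CO2.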

[4] = cAMP Responsive Elements (CRE) small molecule antagonists, cell-based qHTS assay (AID 1963591; active means well fitted inhibition curve with a large enough effect in the signal ratio in the repeat runs, not every such curve was filed as active; inconclusive means weak or mixed curves, or effect the other way; the % refers to the signal ratio); conditions: CRE-bla HEK293T, beta-lactamase FRET ratio; activity change, negative = inhibition: at 92.4 µM (top of the series) unless noted
Outline: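 HEK293T CRE-bla; 18 h preincubation; compound pin-transfer; NKH477 0.25 uM final, 3 h, 37 C; LiveBLAzer FRET substrate 2 h RT.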

[5] = biological target: Beta-2 adrenergic receptor (Homo sapiens) (UniProt P07550); assay: Adrenergic beta2 receptor (ADRB2) small molecule agonists, cell-based qHTS assay (AID 1963593); conditions: CHO-ADRB2 cells, cAMP HTRF, 30 min;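 on activation: CHO cells stably overexpressing human ADRB2; on the % scale 0 is the no-effect control and ±100 the full control effect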
Outline: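 CHO cells stably over-expressing ADRB2 were plated overnight at 37C, then dosed with compounds plus a stimulation mix containing 100uM IBMX and 25uM Ro-20-1724 for 0.5hr at room temperature. cAMP was measured by HTRF competition, 1hr.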

[6] = biological target: 5-hydroxytryptamine receptor 2A (Homo sapiens) (UniProt P28223); assay: 5-hydroxytryptamine receptor 2A (HTR2A) small molecule antagonists, cell-based qHTS assay (AID 1963586); further: nearly all actives have a fitted effect of over 45% in size
Outline: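 CHO cells stably expressing human HTR2A were plated for 18 h at 37 C, then loaded with calcium dye for 1 h. Compounds were preincubated 5 min at room temperature before DOI (4 nM solution) was added. Kinetic fluorescence was read for 3 min.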

[7] = biological target: 5-hydroxytryptamine receptor 2A (Homo sapiens) (UniProt P28223); assay: 5-hydroxytryptamine receptor 2A (HTR2A) small molecule agonists, cell-based qHTS assay (AID 1963587); further: nearly all actives have a fitted effect of over 30% in size
Outline: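 HTR2A-CHO cells, plated 18 h at 37 C/5% CO2, dye-loaded 1 h at 37 C; compounds in DMSO added by pin tool (agonist mode). Intracellular calcium flux read as kinetic fluorescence on FDSS over 2 min at 1 s intervals.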

[8] = biological target: Muscarinic acetylcholine receptor M1 (Homo sapiens) (UniProt P11229); assay: Cholinergic receptor muscarinic 1 (CHRM1) small molecule antagonists, cell-based qHTS assay (AID 1963588); further: nearly all actives have a fitted effect of over 40% in size
Outline: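 Compounds were tested at 15 concentrations in three independent runs. Dye-loaded CHRM1-CHO cells were exposed 5 min at room temperature before stimulation by acetylcholine added at 50nM. Intracellular calcium was read kinetically on FDSS for 3 min.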

[9] = biological target: D(2) dopamine receptor (Homo sapiens) (UniProt P14416); assay: Dopamine D2 receptor (DRD2) small molecule antagonists, cell-based qHTS assay (AID 1963595; active means well fitted inhibition curve with a large enough effect in the signal ratio in the repeat runs, with a control signal flat; inconclusive means weak or mixed curves, or effect the other way; the % refers to the signal ratio; on activity change, negative = inhibition: on the % scale 0 is the no-effect control and ±100 the full control effect); conditions: HEK293-DRD2 cAMP HTRF antagonist mode; activity change, negative = inhibition: at 92.4 µM (top of the series) unless noted
Outline: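 Human DRD2 antagonist qHTS measuring cAMP by HTRF. The cells are exposed to compound for 10 min, then to NKH477 (200 nM) and quinpirole (12 nM) for 30 min at RT, with Ro20-1724 (0.1 mM) present throughout.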

[10] = biological target: Beta-2 adrenergic receptor (Homo sapiens) (UniProt P07550); assay: Adrenergic beta2 receptor (ADRB2) small molecule antagonists, cell-based qHTS assay (AID 1963592); conditions: CHO-ADRB2 cells, isoproterenol-stimulated cAMP HTRF ratio, 0.5 h; activity change, negative = inhibition: at 92.4 µM (top of the series) unless noted; further: nearly all actives have a fitted effect of over 50% in size; on activity change, negative = inhibition: on the % scale 0 is the no-effect control and ±100 the full control effect
Outline: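 Assay format: CHO-ADRB2 cells, 18-20hr seeding at 37C/5% CO2, then compound plus 1nM isoproterenol agonist mix for 0.5hr RT. Homogeneous time-resolved fluorescence cAMP detection after 1hr, expressed as 665/615 nm ratio.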

[11] = biological target: D(2) dopamine receptor (Homo sapiens) (UniProt P14416); assay: Dopamine D2 receptor (DRD2) small molecule agonists, cell-based qHTS assay (AID 1963594); conditions: HEK293-DRD2 cAMP HTRF, agonist mode, 30 min; activation: at 92.4 µM (top of the series) unless noted; further: nearly all actives have a fitted effect of over 35% in size
Outline: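 HEK293 cells stably expressing DRD2 were cultured 24 h at 37 C, then given Ro20-1724 (0.1 mM final) and compounds for 10 min at room temperature. NKH477 (200nM) was then added for 30 min. cAMP was read by HTRF.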

[12] = biological target: Muscarinic acetylcholine receptor M1 (Homo sapiens) (UniProt P11229); assay: Cholinergic receptor muscarinic 1 (CHRM1) small molecule agonists, cell-based qHTS assay (AID 1963589); further: nearly all actives have a fitted effect of over 35% in size
Outline: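 Calcium flux read-out: kinetic fluorescence at 1 sec intervals after pin-tool compound addition to dye-loaded CHRM1-CHO cells (human M1). Agonist mode; 15 concentrations tested in triplicate independent runs.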

[13] = activation: at 92.4 µM (top of the series) unless noted
Potency means the concentration at half of the fitted maximal effect.

With O=C(OCC1CO1)C1CCCCC1C(=O)OCC1CO1 (configuration not stated) the Potency [1] was “inactive”, the Potency [2] was inconclusive: 25.8 µM [activator, partial curve, poor fit] and the Potency [3] was inconclusive: 48.6 µM [rising, partial curve]. For the same compound, the Potency [4] was inconclusive: 61.2 µM [fluorescent, partial curve, poor fit] and the Potency [5, 13] was inconclusive: 24.4 µM [inhibitor].

With COc1ccccc1O the Potency [1] was inconclusive: 0.918 µM [cytotoxic, single point], the Potency [6] was inconclusive: 13400 nM [inhibitor, partial curve, poor fit] and the Potency [7] was inconclusive: 55.3 µM [activator]. The Potency [5, 13] was inconclusive: 0.0194 µM [inhibitor, full curve, poor fit], the activation [5, 13] was inconclusive: 3.83% and the activation ([5]; at 92.4 µM (top of the series)) was inactive: -1.48%.

With Cc1nccn1-c1ccc(Sc2cccc(C3(C(N)=O)CCOCC3)c2)cc1 the Potency [1] was inconclusive: 5.13 µM [rising, partial curve, poor fit], the Potency [6] was “inactive” and the Potency [8] was inconclusive: 16.8 µM [inhibitor, full curve]. For the same compound, the Potency [3] was inconclusive: 21.7 µM [rising, partial curve, poor fit], the Potency [4] was inconclusive: 54.5 µM and the Potency [5, 13] was “inactive”. The Potency [9] was inconclusive: 61.1 µM [inhibitor].

In the case of O=C(O)Cc1ccccc1Nc1c(Cl)cccc1Cl, the Potency [1] is reported as inconclusive: 0.561 µM [rising, full curve, poor fit], the Potency [2] is reported as inconclusive: 51.3 µM [activator] and the activation [5, 13] is reported as inconclusive: -22.2% [at 42.5 µM]. The activation ([5]; at 92.4 µM (top of the series)) was inactive: -23.7%.

With COc1cc2nc(N3CCN(C(=O)c4ccco4)CC3)nc(N)c2cc1OC the Potency [1] was active: 0.972 µM, the activation [2] was inconclusive: 11.9% [at 13.5 µM] and the Potency [10] was active: 14.6 µM. For the same compound, the activation [5, 13] was inconclusive: -52.5% [at 19 µM].

With Nc1ccccc1S(=O)(=O)O the Potency [1] was “inactive”, the Potency [2] was “inactive” and the activation [5, 13] was inconclusive: 2.04%.

For C[C@]12CCC(=O)C=C1CC[C@@H]1[C@@H]2[C@@H](O)C[C@@]2(C)[C@H]1CC[C@]2(O)C(=O)COC(=O)CCC(=O)O, the Potency [1] was “inactive”, the Potency [2] was inconclusive: 0.199 µM [rising, single point] and the Potency [5, 13] was “inactive”.

For O=c1[nH]sc2cc(Cl)ccc12, the Potency [1] was inconclusive: 22.3 µM [cytotoxic], the activation [2] was inconclusive: 67.5% [at 30.3 µM] and the Potency [3] was inconclusive: 33.5 µM [rising, partial curve, poor fit]. The Potency [4] was inconclusive: 29.8 µM [rising, partial curve, poor fit] and the activity change, negative = inhibition [10] was inconclusive: -22.4% [at 42.5 µM].

In the case of C[C@H]1[C@H]2CC[C@H]3[C@@H]4CC=C5C[C@@H](N(C)C)CC[C@]5(C)[C@H]4CC[C@]23CN1C, the Potency [1] is reported as inconclusive: 11.2 µM [rising, single point], the Potency [6] is reported as “inactive” and the Potency [8] is reported as active: 0.729 µM. The Potency [5, 13] was “inactive” and the Potency [9] was “inactive”.

In the case of Cc1oc(-c2ccccc2)nc1CCC(=O)c1ccc(CC2SC(=O)NC2=O)cc1 (configuration not stated), the Potency [1] is reported as “inactive”, the Potency [2] is reported as inconclusive: 12.6 µM [rising, partial curve] and the Potency [3] is reported as inconclusive: 8.41 µM [fluorescent, partial curve]. The Potency [4] was inconclusive: 11.9 µM [fluorescent, partial curve] and the activation [5, 13] was inconclusive: -32% [at 42.5 µM].

For CN(C)CCN1CCN(c2cccc(Cl)c2)C1=O, the Potency [1] was inconclusive: 0.446 µM [cytotoxic, single point], the Potency [6] was active: 1830 nM and the Potency [8] was inconclusive: 0.183 µM [inhibitor, full curve]. The activation [5, 13] was inconclusive: -63.8% [at 42.5 µM], the Potency [11] was active: 13.3 µM and the Potency [9] was inconclusive: 0.376 µM [inhibitor, full curve].

In the case of CCOc1ccccc1N, the Potency [1] is reported as inconclusive: 16.1 µM [cytotoxic, partial curve, poor fit], the Potency [6] is reported as inconclusive: 332 nM [inhibitor, full curve, poor fit] and the Potency [3] is reported as inconclusive: 24.2 µM [rising, full curve]. For the same compound, the Potency [4] was inconclusive: 24.2 µM [fluorescent, single point] and the activation [5, 13] was inconclusive: 55.8%.

In the case of O=C(Oc1ccccc1)c1ccccc1O, the Potency [1] is reported as active: 40.8 µM, the Potency [6] is reported as inconclusive: 23.8 µM [inhibitor, partial curve, poor fit] and inconclusive: 23.1 µM [inhibitor, single point] and the Potency [8] is reported as inconclusive: 0.942 µM [inhibitor, partial curve, poor fit]. For the same compound, the Potency [3] was “inactive”, the activity change, negative = inhibition [4] was inconclusive: -30.8% and the activation [5, 13] was inconclusive: 6.41% [at 42.5 µM]. The Potency [9] was “inactive”.

With O=C(O)CC(C(=O)O)S(=O)(=O)O (configuration not stated) the Potency [1] was inconclusive: 36.3 µM [cytotoxic, partial curve, poor fit], the Potency [2] was “inactive” and the Potency [6] was “inactive”. For the same compound, the activation [5, 13] was inconclusive: 15.3%.

For O=C(O)Cc1ccccc1Oc1ccc(Cl)cc1Cl, the Potency [1] was inconclusive: 8.9 µM [rising, partial curve, poor fit], the Potency [2] was inconclusive: 11.2 µM [rising, single point] and the Potency [8] was “inactive”. For the same compound, the Potency [3] was inconclusive: 37.6 µM [rising, partial curve, poor fit].

With NC(=O)/N=N/C(N)=O the Potency [1] was inconclusive: 22.9 µM [rising, partial curve, poor fit], the Potency [6] was inconclusive: 6 nM [inhibitor, full curve, poor fit] and the Potency [3] was “inactive”. The Potency [5, 13] was inconclusive: 13.7 µM [inhibitor, single point] and inactive.

For O=C1c2ccccc2C(=O)C1(O)O, the Potency [1] was active: 36.5 µM, the Potency [2] was active: 36.5 µM and the Potency [8] was “inactive”. The Potency [3] was inconclusive: 68.9 µM [rising, single point], the Potency [4] was inconclusive: 68.9 µM [single point] and the Potency [5, 13] was “inactive”.

With OCc1ccccn1 the Potency [1] was inconclusive: 2.23 µM [cytotoxic, single point], the Potency [2] was “inactive” and the activation [5, 13] was inconclusive: 17.3% [at 42.5 µM].

For CN1CCC(=C2c3ccccc3Sc3ccccc32)CC1, the Potency [1] was inconclusive: 2.81 µM [rising, partial curve], the Potency [6] was inconclusive: 2.3 nM [inhibitor, full curve, poor fit] and the Potency [8] was inconclusive: 0.0013 µM [inhibitor, full curve, poor fit]. The Potency [12] was inconclusive: 23.9 µM [rising, partial curve], the Potency [4] was “inactive” and the Potency [5, 13] was inconclusive: 8.41 µM [inhibitor, full curve]. For the same compound, the Potency [9] was active: 0.75 µM.

In the case of CC1=C(C)C(=O)C(CCCCC#CCCCC#CCO)=C(C)C1=O, the Potency [1] is reported as “inactive”, the Potency [2] is reported as inconclusive: 8.9 µM [rising, partial curve, poor fit] and the activation [3] is reported as inconclusive: 13.8% [at 42.5 µM]. For the same compound, the Potency [5, 13] was inconclusive: 5.96 µM [inhibitor, full curve].

For CC(=O)Oc1ccc(C2(c3ccc(OC(C)=O)cc3)C(=O)Nc3ccccc32)cc1, the Potency [1] was inconclusive: 5.61 µM [cytotoxic, partial curve, poor fit], the Potency [2] was inconclusive: 1.26 µM [fluorescent, full curve] and the Potency [7] was inconclusive: 12 µM [activator, partial curve]. For the same compound, the activity change, negative = inhibition [4] was inconclusive: 0.162% [at 42.4 µM] and the Potency [5, 13] was “inactive”.
